Measurements published in article PMC12040169 (PLOS Biology, 2025).
The list shows a part of the results.

system: T1, CTL2-GFP (C. trachomatis L2/434/Bu, GFP-expressing); design: species or system HeLa; Intracellular C. trachomatis growth in HeLa cells, bulk GFP fluorescence relative to DMSO; conditions: bulk GFP, single well; 28.5 h, 10 µM; inhibitor
T1 construct: L2/434/Bu, GFP-expressing

In order of falling “% of control remaining” value:
1. Cc1cn2c(nc1=O)OC[C@H]1O[C@@H]2C[C@H]1O [CBK201280]  204.005%
2. C/C=C/c1ccc(OCCNC2CCCC2)c(OC)c1 [CBK266399G]  185.019%
3. c1coc(-c2nc3n(n2)CCS3)c1 [CBK007565]  168.528%
4. Cc1ccc2oc(CN3CCC(O)(c4cccnc4)CC3)c(C)c2c1 [CBK282816]  167.594%
5. CCCC/C=C/c1cncc(N[C@H](CO)C(C)C)n1 [CBK065314]  166.175%
6. O=C1COc2ccccc2C/C=C/CC2(CCCN(C(=O)CN3CCCC3=O)C2)CN1 (centres unmarked) [CBK292032]  165.018%
7. COc1ccc(Nc2nc(N)nc(CSCCO)n2)cc1 [CBK266714]  162.029%
8. O=C(CNC(=O)c1ccco1)Nc1cccc(-c2nc3ccccc3s2)c1 [CBK295142]  159.289%
9. COCCN1C(=O)c2ccc(C(=O)c3ccc4c(c3)C(=O)N(CCOC)C4=O)cc2C1=O [CBK268641]  155.285%
10. Cc1ccc(-c2n[nH]c(=O)o2)cc1Br [CBK288443]  150.063%
11. CC1CC1C(=O)N1C2CCC1CC(O)(Cn1ccc3ccncc31)C2 (centres unmarked) [CBK284653]  147.445%
12. CC(NC(=O)N1CCN(CCc2ccccc2)CC1)c1ccccc1 (centres unmarked) [CBK158935]  140.378%
13. CC(=O)N(C)c1ccc(NC(=O)c2ccccc2C(=O)O)cc1 [CBK270693]  137.595%
14. O=C(N[C@@H](Cn1ccc(=O)[nH]c1=O)C(=O)O)C1CCCCC1 [CBK289651]  134.072%
15. COc1cccc(C(=O)N2CCC(Cc3ccccc3-c3ccccc3C)(C(N)=O)CC2)c1 [CBK285722]  125.536%
16. CCOc1ccccc1C(=O)N1CCC(Cc2ccc(-c3ccccc3)cc2)(C(N)=O)CC1 [CBK285775]  125.44%
17. CC(C)Nc1nc(-c2cccnc2)cn2ccnc12 [CBK093608]  122.329%
18. COc1ccc(C(=O)N2CCN(Cc3cccnc3)CC2)cc1OC [CBK263321]  121.878%
19. O=C(NCc1ccco1)c1cc(Br)cnc1N1CCOCC1 [CBK076268]  121.174%
20. CCN(CC)CCN(C(=O)NCCCSC)C(C)c1ccc(OC)c(OC)c1 (centres unmarked) [CBK158803]  120.383%
21. Cc1cc(C)n(CC(=O)NC2CCCOc3c(F)cccc32)n1 (centres unmarked) [CBK305553]  120.13%
22. O=C(Cc1c[nH]cn1)Nc1ccc2cc[nH]c2c1 [CBK160059]  119.242%
23. Cn1c(=O)n(Cc2ccccn2)c(=O)c2cnc(-c3ccncc3)nc21 [CBK288592]  116.503%
24. Cc1csc(C(Cc2ccsc2)NC(=O)CCn2cccn2)n1 (centres unmarked) [CBK285149]  115.619%
25. CN(C)CCO/N=C(\c1ccccc1)c1ccncc1 [CBK261095G]  115.321%
26. CCNc1cc(-c2ccc(CC(C)C)cc2)ncn1 [CBK090884]  113.29%
27. Cc1nn(CCC(=O)NCCN2CCC(C)CC2)c(C)c1Cl [CBK281571]  111.499%
28. Cc1ccc2cc(C(=O)N3CCCCC3CN3CCOCC3)[nH]c2c1 (centres unmarked) [CBK304374]  110.249%
29. COC(=O)CN1CCCC[C@H]2CN(C(=O)C3CCC3)C[C@H]21 [CBK285496]  108.981%
30. O=C(O)/C=C/C(=O)Nc1ccccc1C(=O)O [CBK261461]  106.189%
31. Cc1cc2ccccc2n1CC(=O)N1CCn2cnnc2C1 [CBK282209]  105.096%
32. COCCCOc1nc2cc(Cl)c(Cl)cc2nc1N1CCCC1 [CBK115773]  104.79%
33. COC(=O)Nc1ccc(S(=O)(=O)N2CCCCC2C(=O)O)cc1 (centres unmarked) [CBK058086]  103.689%
34. COc1ccc(C)cc1S(=O)(=O)N1CCN(C(c2ccccc2)c2ccccc2)CC1 [CBK263977]  102.331%
35. CCN(Cc1ccccc1)Cc1nc2ccccc2c(=O)[nH]1 [CBK283203]  102.107%
36. COc1cc(/C=C2\C(=O)N(c3ccc(NC(C)=O)cc3)N=C2c2ccccc2)ccc1O [CBK265664]  100%
37. NCCCNC(=O)c1ccc(/C=N/O)nc1 [CBK264524]  100%
38. O=[N+]([O-])c1ccc(N(CCO)CCO)c2nonc12 [CBK261447]  100%
39. Cc1nc2c(-c3cccs3)c(C)nn2c(O)c1C [CBK283728]  97.5288%
40. S=C1NCCN1c1nnc(-c2cccs2)[nH]1 [CBK007096]  96.5813%
41. Nc1nc(=O)c2cnc3ccc(F)cc3c2s1 [CBK291195]  96.4969%
42. Cc1cc(C)n(C(=O)c2cn3cc(Cl)ccc3n2)n1 [CBK288185]  95.7352%
43. Cc1ccc2cc(CN(Cc3ccco3)C(=O)C3CCCO3)c(O)nc2c1 (centres unmarked) [CBK269300]  92.0879%
44. COc1ccc(C(CNC(=O)C2C(C(=O)O)C2(C)C)N(C)C)cc1 (centres unmarked) [CBK286700]  91.9474%
45. CC(C)Nc1nc2ccccc2nc1OCCCN(C)C [CBK113416]  89.0813%
46. Cc1noc(C)c1S(=O)(=O)Nc1c(C(=O)Nc2ccc(F)cc2)[nH]c2ccccc12 [CBK050099]  88.3704%
47. COc1ccc(N2CCN(c3nccnc3-c3ccc(C(C)=O)s3)CC2)cc1OC [CBK036968]  86.794%
48. COc1ccc(Cl)cc1C(=O)Nc1cc(C)c2c(=O)oc3ccccc3c2n1 [CBK291196]  83.0281%
49. O=C(O)CN1C(=O)CC2(C1=O)C(=O)N(Cc1ccccc1)c1ccccc12 (centres unmarked) [CBK076093]  77.8027%
50. C[C@@H]1CN(C(=O)c2ccc3[nH]nnc3c2)C[C@H](C)O1 [CBK200369]  71.2441%
51. OCCCc1[nH]nc(-c2ccc(Cl)cc2)c1Br [CBK006993]  67.0223%
52. CC(Nc1cccc2ccccc12)C(=O)N/N=C/c1c(O)ccc2ccccc12 (centres unmarked) [CBK262678]  34.1138%
53. O=C(Nc1snnc1-c1ccc(Cl)cc1)c1cccc(C(F)(F)F)c1 [CBK153246]  23.7651%
